According to patent publication US20210395323A1 (UNIVERSIT T STUTTGART, published 2021):

Columns and labels:
[1] = biological target: T1, human TNFR2-Fc fusion protein (human, UniProt P20333 23-257); experiment: ELISA, huTNFR2-Fc coated at 1 µg/ml, bound protein detected with anti-TNF F6C5
T1 construct: also called huTNFR2-Fc; huTNFR2
T1 sequence (looked up): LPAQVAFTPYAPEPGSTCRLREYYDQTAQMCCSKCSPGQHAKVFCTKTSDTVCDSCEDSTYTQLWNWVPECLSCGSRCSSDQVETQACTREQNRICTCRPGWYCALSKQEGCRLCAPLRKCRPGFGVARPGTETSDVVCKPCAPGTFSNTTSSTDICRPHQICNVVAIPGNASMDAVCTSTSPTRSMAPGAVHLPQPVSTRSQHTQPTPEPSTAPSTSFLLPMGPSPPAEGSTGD
Method: ELISA plates (Greiner, Frickenhausen, Germany) were coated with huTNFR1-Fc, mTNFR1-Fc, huTNFR2-Fc or mTNFR2-Fc fusion proteins at 1 μg/ml in PBS and incubated at 4° C. overnight. Residual binding sites were blocked with 2% skim milk powder in PBS at RT for 2 hours. ScTNFR2 and the complexes were diluted in 2% skim milk powder in PBS and added at concentrations in the range of 10⁻³ to 10 nM and incubated for 1 hour at RT. Between each step, non-bound proteins were removed by washing 4 times with 0.005% Tween-20 in PBS.
Bound proteins were detected with mouse monoclonal antibodies to TNF (clone F6C5; 1 μg/ml; incubation for 1 hour at RT) and HRP-conjugated anti-mouse IgG antibodies (diluted 1:10000; incubation for 1 hour at RT), followed by incubation with tetramethylbenzidine (TMB) substrate solution. Reaction was stopped by addition of 1 M H₂SO₄ and the absorbance at 450 nm was determined with a Multiskan FC absorbance reader (Thermo Scientific, Karlsruhe, Germany) and data were analyzed using the software Microsoft Excel and GraphPad Prism 4 (GraphPad, La Jolla, Calif.) (FIG. 5). In Table 3, the calculated EC₅₀ values for the binding of TNF, scTNFR2 and the complexes to immobilized huTNFR2 and mTNFR2 based on the ELISA assay are summarized.

[2] = biological target: T2, TNFR2 on human cells (Kym-1 cells; human CD3+ T cells) (human, UniProt P20333 23-461); experiment: cell-based or functional assay
T2 sequence (looked up): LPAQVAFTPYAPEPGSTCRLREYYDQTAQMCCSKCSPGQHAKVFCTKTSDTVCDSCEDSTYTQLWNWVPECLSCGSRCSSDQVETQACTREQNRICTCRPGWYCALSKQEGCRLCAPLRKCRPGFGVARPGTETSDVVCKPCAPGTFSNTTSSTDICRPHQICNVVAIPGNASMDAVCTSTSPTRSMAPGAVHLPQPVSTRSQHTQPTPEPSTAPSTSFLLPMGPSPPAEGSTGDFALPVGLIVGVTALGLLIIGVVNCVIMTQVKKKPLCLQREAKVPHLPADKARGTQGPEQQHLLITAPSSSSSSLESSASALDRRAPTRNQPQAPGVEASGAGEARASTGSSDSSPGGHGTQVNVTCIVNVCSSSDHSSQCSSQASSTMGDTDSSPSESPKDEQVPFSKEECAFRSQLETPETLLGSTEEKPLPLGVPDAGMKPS

- EC50 [1]: 0.0312 nM
B1: GCN4-scTNFR2 (human) (ligand)
chain: RLKQIEDKLEEILSKLYHIENELARIKKLLGERGAPGGGSGGGSGGGSGGGSGGGSGGSEFLASSRTPSDKPVAHVVANPQAEGQLQWLNRRANALLANGVELRDNQLVVPSEGLYLIYSQVLFKGQGCPSTHVLLTHTISRIAVSYQTKVNLLSAIKSPCQRETPEGAEAKPWYEPIYLGGVFQLEKGDRLSAEINRPDYLNFRESGQVYFGIIALGGGGSSSRTPSDKPVAHVVANPQAEGQLQWLNRRANALLANGVELRDNQLVVPSEGLYLIYSQVLFKGQGCPSTHVLLTHTISRIAVSYQTKVNLLSAIKSPCQRETPEGAEAKPWYEPIYLGGVFQLEKGDRLSAEINRPDYLNFRESGQVYFGIIALGGGGSSSRTPSDKPVAHVVANPQAEGQLQWLNRRANALLANGVELRDNQLVVPSEGLYLIYSQVLFKGQGCPSTHVLLTHTISRIAVSYQTKVNLLSAIKSPCQRETPEGAEAKPWYEPIYLGGVFQLEKGDRLSAEINRPDYLNFRESGQVYFGIIAL
- EC50 values (nM) of cell death induction using Kym-1 cells [2]: 0.0025 nM
